# Data reported in the supplement of paper PMC12819154, “High-throughput peptide-centric local stability assay extends protein–ligand identification to membrane proteins, tissues and bacteria” (Nature Structural & Molecular Biology, 2025).
# By UniProt entry, the sequences of proteins in these tests, tags left out. Where a name states a change or a piece, a line headed by the entry shows the natural chain unless it says otherwise.
# UniProt P0AG82: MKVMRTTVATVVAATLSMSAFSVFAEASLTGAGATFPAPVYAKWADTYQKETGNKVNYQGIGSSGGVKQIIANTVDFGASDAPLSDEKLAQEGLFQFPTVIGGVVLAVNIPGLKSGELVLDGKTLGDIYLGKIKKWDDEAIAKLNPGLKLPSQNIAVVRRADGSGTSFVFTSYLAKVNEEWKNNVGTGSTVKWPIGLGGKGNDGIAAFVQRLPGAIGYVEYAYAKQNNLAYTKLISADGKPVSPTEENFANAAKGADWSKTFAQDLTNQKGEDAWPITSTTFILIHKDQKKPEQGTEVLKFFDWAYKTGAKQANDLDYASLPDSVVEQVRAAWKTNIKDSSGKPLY
# UniProt P0AFU8: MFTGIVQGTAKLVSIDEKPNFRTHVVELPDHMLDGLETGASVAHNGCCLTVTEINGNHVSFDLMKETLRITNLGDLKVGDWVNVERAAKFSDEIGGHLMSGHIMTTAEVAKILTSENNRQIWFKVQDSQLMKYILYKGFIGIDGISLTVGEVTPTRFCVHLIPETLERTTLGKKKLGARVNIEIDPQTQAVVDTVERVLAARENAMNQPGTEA
# UniProt P0AFW8: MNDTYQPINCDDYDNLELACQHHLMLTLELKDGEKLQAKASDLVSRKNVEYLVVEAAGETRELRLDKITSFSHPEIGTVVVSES
# UniProt P0AF43: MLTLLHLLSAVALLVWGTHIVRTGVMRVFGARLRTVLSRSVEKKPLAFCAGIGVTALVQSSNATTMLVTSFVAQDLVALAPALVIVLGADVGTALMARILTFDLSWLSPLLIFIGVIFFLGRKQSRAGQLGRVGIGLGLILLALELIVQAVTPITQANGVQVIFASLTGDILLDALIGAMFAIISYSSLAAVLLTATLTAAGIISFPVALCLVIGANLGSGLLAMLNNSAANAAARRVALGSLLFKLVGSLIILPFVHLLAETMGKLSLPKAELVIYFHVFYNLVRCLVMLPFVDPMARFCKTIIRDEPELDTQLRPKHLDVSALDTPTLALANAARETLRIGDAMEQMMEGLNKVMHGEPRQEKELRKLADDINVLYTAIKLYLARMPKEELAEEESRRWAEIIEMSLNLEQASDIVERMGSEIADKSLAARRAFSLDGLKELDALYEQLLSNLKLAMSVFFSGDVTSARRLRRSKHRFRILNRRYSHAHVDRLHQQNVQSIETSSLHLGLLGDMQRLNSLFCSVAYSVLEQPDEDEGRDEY
# UniProt P0AD19: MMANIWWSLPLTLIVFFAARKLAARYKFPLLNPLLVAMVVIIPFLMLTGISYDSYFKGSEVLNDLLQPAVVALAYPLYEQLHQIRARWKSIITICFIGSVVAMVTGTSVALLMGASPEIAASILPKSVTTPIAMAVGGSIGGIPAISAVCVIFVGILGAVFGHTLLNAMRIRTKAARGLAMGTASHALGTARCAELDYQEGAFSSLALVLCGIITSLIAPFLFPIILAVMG
# UniProt P0AEE1: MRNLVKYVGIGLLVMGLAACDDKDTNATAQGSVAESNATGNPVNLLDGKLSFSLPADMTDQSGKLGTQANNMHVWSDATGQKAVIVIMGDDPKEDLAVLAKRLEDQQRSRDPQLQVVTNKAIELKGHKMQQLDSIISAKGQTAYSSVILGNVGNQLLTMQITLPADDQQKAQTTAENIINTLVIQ
# UniProt P0AE28: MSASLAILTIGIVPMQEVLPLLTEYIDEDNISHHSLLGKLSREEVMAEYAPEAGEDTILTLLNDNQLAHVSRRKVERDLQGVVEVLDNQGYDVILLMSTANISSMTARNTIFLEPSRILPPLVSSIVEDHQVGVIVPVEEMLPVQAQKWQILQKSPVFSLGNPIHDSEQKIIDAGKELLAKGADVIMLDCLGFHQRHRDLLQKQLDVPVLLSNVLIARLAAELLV
# UniProt P0ADX7: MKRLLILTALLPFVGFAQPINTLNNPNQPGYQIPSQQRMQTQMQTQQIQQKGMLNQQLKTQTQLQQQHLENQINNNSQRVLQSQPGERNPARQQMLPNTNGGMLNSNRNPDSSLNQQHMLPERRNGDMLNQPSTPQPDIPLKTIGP
# UniProt P0ADA3: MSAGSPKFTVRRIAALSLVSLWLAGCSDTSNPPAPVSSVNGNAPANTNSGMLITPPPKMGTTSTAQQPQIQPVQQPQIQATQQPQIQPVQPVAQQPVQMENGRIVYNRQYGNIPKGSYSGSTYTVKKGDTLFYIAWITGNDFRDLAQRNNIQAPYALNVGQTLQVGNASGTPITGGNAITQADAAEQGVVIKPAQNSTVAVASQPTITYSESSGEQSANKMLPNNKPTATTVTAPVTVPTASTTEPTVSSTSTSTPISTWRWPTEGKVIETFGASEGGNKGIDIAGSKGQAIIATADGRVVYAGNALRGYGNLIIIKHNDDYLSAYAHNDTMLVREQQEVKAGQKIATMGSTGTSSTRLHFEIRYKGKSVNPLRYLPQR
# UniProt P0AE58: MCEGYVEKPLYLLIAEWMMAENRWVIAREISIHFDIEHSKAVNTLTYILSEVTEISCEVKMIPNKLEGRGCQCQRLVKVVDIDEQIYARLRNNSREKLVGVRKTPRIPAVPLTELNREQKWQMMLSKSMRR
# UniProt P0AG78: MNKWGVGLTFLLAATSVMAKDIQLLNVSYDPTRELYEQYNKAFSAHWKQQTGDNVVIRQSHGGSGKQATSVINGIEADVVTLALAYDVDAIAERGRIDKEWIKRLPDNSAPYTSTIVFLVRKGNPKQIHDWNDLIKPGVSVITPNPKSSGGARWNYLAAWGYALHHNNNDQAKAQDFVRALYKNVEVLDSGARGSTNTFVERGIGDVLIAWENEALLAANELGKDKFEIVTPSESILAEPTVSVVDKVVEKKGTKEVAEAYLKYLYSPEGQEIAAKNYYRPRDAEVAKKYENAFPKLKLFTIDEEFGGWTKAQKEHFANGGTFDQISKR
# UniProt P0ADZ7: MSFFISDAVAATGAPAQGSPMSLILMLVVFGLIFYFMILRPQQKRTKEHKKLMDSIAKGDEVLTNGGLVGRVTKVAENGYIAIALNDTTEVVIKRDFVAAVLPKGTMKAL
# UniProt P0ADP0: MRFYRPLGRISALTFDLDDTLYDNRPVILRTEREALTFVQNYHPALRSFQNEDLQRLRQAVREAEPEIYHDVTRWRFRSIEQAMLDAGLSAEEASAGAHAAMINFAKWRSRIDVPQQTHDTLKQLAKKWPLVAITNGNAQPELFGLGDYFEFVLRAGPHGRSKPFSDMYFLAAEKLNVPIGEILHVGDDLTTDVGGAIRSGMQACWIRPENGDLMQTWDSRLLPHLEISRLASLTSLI
# UniProt P0ADJ3: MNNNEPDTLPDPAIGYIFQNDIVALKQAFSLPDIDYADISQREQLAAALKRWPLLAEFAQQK
# UniProt P0AFW0: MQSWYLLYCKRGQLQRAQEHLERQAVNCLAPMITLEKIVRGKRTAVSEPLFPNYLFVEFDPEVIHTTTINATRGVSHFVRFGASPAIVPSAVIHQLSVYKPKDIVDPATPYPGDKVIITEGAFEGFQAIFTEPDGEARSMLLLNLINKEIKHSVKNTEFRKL
# UniProt P0AEK2: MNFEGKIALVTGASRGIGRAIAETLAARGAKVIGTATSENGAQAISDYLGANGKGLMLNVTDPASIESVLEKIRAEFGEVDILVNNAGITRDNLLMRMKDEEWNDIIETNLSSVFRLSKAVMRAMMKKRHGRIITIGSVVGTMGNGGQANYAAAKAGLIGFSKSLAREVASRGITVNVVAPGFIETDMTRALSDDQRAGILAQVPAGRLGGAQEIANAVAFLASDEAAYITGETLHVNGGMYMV
# UniProt P0AFU6: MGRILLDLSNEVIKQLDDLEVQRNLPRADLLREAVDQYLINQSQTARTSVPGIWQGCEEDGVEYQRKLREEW
# UniProt P0AFF4: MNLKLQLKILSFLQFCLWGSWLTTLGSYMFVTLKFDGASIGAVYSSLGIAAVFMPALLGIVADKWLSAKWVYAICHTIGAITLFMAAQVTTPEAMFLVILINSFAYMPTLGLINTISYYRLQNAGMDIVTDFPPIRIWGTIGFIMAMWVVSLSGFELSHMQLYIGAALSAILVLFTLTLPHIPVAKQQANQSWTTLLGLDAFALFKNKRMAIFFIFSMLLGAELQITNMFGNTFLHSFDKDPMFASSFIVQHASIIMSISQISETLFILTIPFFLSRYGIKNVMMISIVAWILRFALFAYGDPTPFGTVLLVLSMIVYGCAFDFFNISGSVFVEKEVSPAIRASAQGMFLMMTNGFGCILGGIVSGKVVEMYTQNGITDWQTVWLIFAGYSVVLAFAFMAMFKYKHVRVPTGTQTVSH
# UniProt P0AD44: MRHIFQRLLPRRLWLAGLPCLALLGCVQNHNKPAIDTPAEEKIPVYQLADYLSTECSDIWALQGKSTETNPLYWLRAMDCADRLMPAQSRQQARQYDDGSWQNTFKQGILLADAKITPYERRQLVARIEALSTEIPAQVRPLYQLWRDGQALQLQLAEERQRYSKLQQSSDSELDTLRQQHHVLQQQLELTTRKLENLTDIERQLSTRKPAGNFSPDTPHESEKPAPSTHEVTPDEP
# UniProt P0AF98: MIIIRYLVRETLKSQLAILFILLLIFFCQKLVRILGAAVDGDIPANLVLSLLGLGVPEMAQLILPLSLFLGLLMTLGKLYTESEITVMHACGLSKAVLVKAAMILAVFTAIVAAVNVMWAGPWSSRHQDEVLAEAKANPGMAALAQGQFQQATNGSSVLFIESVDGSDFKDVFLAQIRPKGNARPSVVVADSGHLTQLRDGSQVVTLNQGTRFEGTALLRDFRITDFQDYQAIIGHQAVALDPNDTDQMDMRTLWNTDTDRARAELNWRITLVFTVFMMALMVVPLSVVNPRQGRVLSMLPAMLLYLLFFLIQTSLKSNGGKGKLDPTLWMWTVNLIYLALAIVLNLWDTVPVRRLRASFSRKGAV
# UniProt P0AFI5: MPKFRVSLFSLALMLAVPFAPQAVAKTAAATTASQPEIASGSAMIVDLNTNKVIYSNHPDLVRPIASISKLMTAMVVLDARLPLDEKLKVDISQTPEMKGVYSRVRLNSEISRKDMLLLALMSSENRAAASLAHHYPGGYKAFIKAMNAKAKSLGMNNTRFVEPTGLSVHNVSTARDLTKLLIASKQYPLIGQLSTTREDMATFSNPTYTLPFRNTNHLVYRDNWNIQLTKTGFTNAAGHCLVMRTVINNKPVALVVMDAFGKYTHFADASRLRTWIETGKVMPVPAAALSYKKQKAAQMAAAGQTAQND
# The other results are listed elsewhere or left out. Most entries show no effect beyond the scatter of the controls.
# Compound: CC1(C)S[C@@H]2[C@H](NC(=O)[C@H](N)c3ccccc3)C(=O)N2[C@H]1C(=O)O [ampicillin]
# Assay: log2 fold change of tryptic peptide abundance, ligand vs vehicle (limited proteolysis) (log2 ratio); higher = more trypsin-susceptible (destabilized)
# Conditions: ligand concentration: 10 uM; sample: E. coli crude lysate
row,Target,log2 fold change
1,"UniProt P0AG82 (peptide sequence: VNYQGIGSSGGVK, peptide start residue: 56)",0.199
2,"UniProt P0AFU8 (peptide sequence: ENAMNQPGTEA, peptide start residue: 203)",-0.272
3,"UniProt P0AFW8 (peptide sequence: ASDLVSRK, peptide start residue: 40)",-0.11
4,"UniProt P0AF43 (peptide sequence: LHQQNVQSIETSSLHLGLLGDMQR, peptide start residue: 495)",0.198
5,"UniProt P0AD19 (peptide sequence: GLAMGTASHALGTAR, peptide start residue: 178)",-0.0318
6,"UniProt P0AEE1 (peptide sequence: AVIVIMGDDPKEDLAVLAKR, peptide start residue: 83)",0.147
7,"UniProt P0AE28 (peptide sequence: GADVIMLDCLGFHQR, peptide start residue: 182)",-0.177
8,"UniProt P0ADX7 (peptide sequence: NPDSSLNQQHMLPER, peptide start residue: 109)",0.0911
9,"UniProt P0ADA3 (peptide sequence: GSYSGSTYTVKK, peptide start residue: 116)",0.253
10,"UniProt P0AE58 (peptide sequence: VVDIDEQIYAR, peptide start residue: 79)",-0.215
11,"UniProt P0AG78 (peptide sequence: NVEVLDSGAR, peptide start residue: 184)",-0.378
12,"UniProt P0ADZ7 (peptide sequence: KLMDSIAK, peptide start residue: 51)",0.287
13,"UniProt P0ADP0 (peptide sequence: EAEPEIYHDVTR, peptide start residue: 63)",0.0926
14,"UniProt P0ADJ3 (peptide sequence: EQLAAALKR, peptide start residue: 43)",-0.151
15,"UniProt P0AFW0 (peptide sequence: SMLLLNLINKEIK, peptide start residue: 139)",-0.159
16,"UniProt P0AEK2 (peptide sequence: MKDEEWNDIIETNLSSVFR, peptide start residue: 98)",-0.218
17,"UniProt P0AFU6 (peptide sequence: ILLDLSNEVIK, peptide start residue: 4)",0.17
18,"UniProt P0AFF4 (peptide sequence: VPTGTQTVSH, peptide start residue: 409)",0.00809
19,"UniProt P0AD44 (peptide sequence: QQHHVLQQQLELTTR, peptide start residue: 179)",0.289
20,"UniProt P0AF98 (peptide sequence: PSVVVADSGHLTQLR, peptide start residue: 185)",0.382
21,"UniProt P0AFI5 (peptide sequence: TGFTNAAGHCLVMR, peptide start residue: 232)",-0.873

# A different layout for some results above.
row	Target	log2 fold change
3	UniProt P0AFW8 (peptide sequence: ASDLVSRK, peptide start residue: 40)	-0.11
11	UniProt P0AG78 (peptide sequence: NVEVLDSGAR, peptide start residue: 184)	-0.378
